System: BALB/c male mice
Test: Mouse tail flick latency
Type: in vivo
Settings: total plasma concentration, sigmoidal Emax model, SC dosing, read-out: Mouse tail flick EC50, mean ± SE

## COc1cccc(C2(O)CCCCC2CN(C)C)c1 (stereo not shown) [Tramadol]
  EC50: 1130 ± 80 nM

Source: article PMC8740778, “Translational Pharmacokinetic–Pharmacodynamic Modeling of NaV1.7 Inhibitor MK-2075 to Inform Human Efficacious Dose” (Frontiers in Pharmacology, 2021)
